Some of the results follow. The main result of the screen is listed elsewhere. These columns were measured beside it and carry no call. The list favours compounds with an active or inconclusive main result. Potencies come from curve fits of mixed quality, noted in brackets.
Test: qHTS Assay to Find Inhibitors of Chronic Active B-Cell Receptor Signaling
Details: ABC-DLBCL IkBa-CBG/CBR reporter, luminescence ratio (green luciferase fused to IkBa over red control in TMD8 lymphoma cells), 4 h
In short: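 Compounds up to 46 uM were incubated four hours with TMD8 cells whose green CBG68 luciferase is fused to IkappaBalpha; red CBR luminescence normalised the signal, and concentration-effect curves were fitted to fusion, red and ratio data.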

[1] = measured here: CBR red luminescence, cell number
[2] = measured here: IkBa-CBG green luminescence

SMILES | AC50 [1] | AC50 [2]
COc1ccc(CC(=O)NNc2ncnc3c2cnn3-c2ccccc2)cc1 | 16.4 µM [falling, single point] | 
CCOc1cc(N2CCOCC2)c(OCC)cc1NC(=O)CN1C(=O)N(C)C2(CCCCC2)C1=O | 10.3 µM [rising, partial curve, poor fit] | 
COc1n[nH]c(C(=O)Nc2cc(Cl)ccc2Cl)c1[N+](=O)[O-] | 5.62 µM [falling, single point] | 
Cc1ccc(-c2cnn(-c3cccc([N+](=O)[O-])c3)c2N)cc1 | 14.1 µM [falling, single point] | 
COC(=O)CCn1nnc(-c2ccc(C(C)C)cc2)n1 | 4.11 µM [falling, partial curve] | 
CCOc1ncccc1C(=O)Nc1ccc(C)c(S(=O)(=O)N2CCCCCC2)c1 | 0.116 µM [falling, full curve, poor fit] | 
CCCCOc1nc2c(c(=O)n(C)c(=O)n2C)n1C | 2.24 µM [falling, partial curve, poor fit] | 
COc1ccc(CCNc2ncnc3c2nnn3C)cc1 | 25.1 µM [falling, partial curve, poor fit] | 
Cc1ccc(-c2csc(NC(=O)c3ccno3)n2)cc1 | 0.103 µM [rising, full curve, poor fit] | 
Cc1sc2nc(SCC(=O)N3CCN(CCO)CC3)n(-c3ccccc3)c(=O)c2c1C | 3.26 µM [rising, full curve, poor fit] | 
N#CCC(=O)Nc1ccc(C(=O)OCc2ccccc2Oc2ccccc2)cc1 | 0.112 µM [falling, full curve, poor fit] | 
c1ccc(-c2nc(-c3ccco3)cs2)nc1 | 1.26 µM [rising, partial curve, poor fit] | 
CCOc1ccc(/C=C(\C#N)C(=O)Nc2ccccn2)cc1 | 14.1 µM [rising, partial curve, poor fit] | 
COc1ccccc1C(=O)N/N=C(\C)CC(=O)Nc1ccccn1 | 0.794 µM [falling, partial curve, poor fit] | 
Cc1onc(-c2ccccc2Cl)c1C(=O)NC(=S)Nc1ccc(C(C)(C)C)cc1 | 2.51 µM [rising, full curve, poor fit] | 
O=C(O)C1CCN(C(=O)COc2ccc3c4c(c(=O)oc3c2)CCC4)CC1 | 11.2 µM [falling, single point] | 
Cc1ccc(NC(=O)CSc2nc3ccccc3c3nc(CCc4c(C)n[nH]c4C)nn23)cc1F | 0.00461 µM [rising, full curve, poor fit] | 
COC(=O)N1C(=O)[C@@](c2ccc(OC)cc2)(C(C)C)N1C(=O)OC | 2 µM [falling, full curve, poor fit] | 
CCn1c(COc2ccccc2)nnc1SCC(=O)CC(=O)Nc1ccccc1OC | 11.2 µM [falling, partial curve] | 
O=C1CCC/C(=N/NC(=O)c2ccc(CN3c4cccc5cccc(c45)S3(=O)=O)cc2)C1 | 10.3 µM [rising, single point] | 

2 of the compounds above, as tab-separated lines.
SMILES	AC50 [1]	AC50 [2]
Cc1ccc(NC(=O)CSc2nc3ccccc3c3nc(CCc4c(C)n[nH]c4C)nn23)cc1F	0.00461 µM [rising, full curve, poor fit]	
COC(=O)N1C(=O)[C@@](c2ccc(OC)cc2)(C(C)C)N1C(=O)OC	2 µM [falling, full curve, poor fit]	

Remaining list, next part

SMILES | AC50 [1] | AC50 [2]
C/C(CC(=O)N(C(C)C)C(C)C)=N\NC(=O)c1ccccc1Br | 23.1 µM [falling, partial curve] | 
COc1ccc(CNC(=O)COC(=O)c2ccco2)cc1 | 35.5 µM [rising, partial curve, poor fit] | 
O=C(CNC(=O)c1ccncc1)N/N=C/c1ccc(O)cc1O | 10 µM [falling, partial curve, poor fit] | 
CCn1ccc(C(=O)Nc2ccc3c(c2)CCC3)n1 | 0.708 µM [rising, full curve, poor fit] | 
Cc1cccc(-n2ncc3c(Nc4ccc(F)cc4)ncnc32)c1 | 0.0259 µM [falling, full curve, poor fit] | 
C=CCNC(=S)N/N=C/c1ccc(-c2ccc(OC)cc2)o1 | 35.5 µM [falling, single point] | 5.62 µM [falling, single point]
S=C(NC1CCCC1)N1CCN(c2ccccn2)CC1 | 14.6 µM [rising, single point] | 
CCOC(=O)N1CCN(C(=O)/C(=C/c2cccs2)NC(=O)c2cccs2)CC1 | 17.8 µM [rising, partial curve, poor fit] | 
COc1cc2cc(CN(CCO)S(=O)(=O)c3ccccc3Cl)c(=O)[nH]c2cc1OC | 2.24 µM [rising, full curve, poor fit] | 
COc1cccc(C2NC(CC(C)C)(C(=O)O)C3C(=O)N(Cc4ccccc4)C(=O)C23)c1O (configuration not stated) | 23.1 µM [rising, single point] | 
Cc1ccc(Sc2cc(C)nc(-c3ccccn3)n2)cc1 | 6.31 µM [rising, single point] | 
O=C(NCc1ccc(Cl)cc1)C(=O)c1cn(CC(=O)N2CCOCC2)c2ccccc12 | 1 µM [falling, full curve] | 
COc1cccc(NC(=O)c2ccc(-n3cnnn3)cc2)c1 | 5.62 µM [falling, partial curve, poor fit] | 
CCOc1ccc(C(=O)OCC(=O)Nc2cccc(S(=O)(=O)N3CCCC3)c2)cc1 |  | 32.6 µM [falling, partial curve, poor fit]
Cc1ccc(C(=O)COC(=O)C2C3C=CC(C3)C2C(=O)OCC(=O)c2ccc(C)c(C)c2)cc1C (configuration not stated) | 2.51 µM [falling, full curve] | 
Cc1ccc(C)c(NC(=O)C2COc3ccccc3O2)c1 (configuration not stated) | 8.91 µM [rising, partial curve, poor fit] | 
Cc1ccc(Nc2nc(N)c3ccccc3n2)cc1C | 17.8 µM [falling, partial curve, poor fit] | 31.6 µM [falling, single point]
N/C(=N\NC(=O)c1cccc(F)c1)c1cc2ccccc2oc1=O | 20 µM [falling, partial curve, poor fit] | 
COc1ccc(CN2CCN(CCc3ccccc3)C(CCO)C2)cc1Cn1cncn1 (configuration not stated) | 0.282 µM [rising, full curve, poor fit] | 
Cc1ccc(NC(=O)CC(=O)c2ccccc2)cc1C | 14.1 µM [falling, single point] | 
